Measured values: the supplement of paper PMC10849652
This is one part of the list. Residues, ends and D or L forms follow the SMILES beside them. *: point of attachment. Cbz = O=C(OCc1ccccc1)*

Chains of the proteins cited; added tags and fusions are not shown. Lines headed by an entry give the natural chain unless they say otherwise; changes in a name come on top.
UniProt Q10713: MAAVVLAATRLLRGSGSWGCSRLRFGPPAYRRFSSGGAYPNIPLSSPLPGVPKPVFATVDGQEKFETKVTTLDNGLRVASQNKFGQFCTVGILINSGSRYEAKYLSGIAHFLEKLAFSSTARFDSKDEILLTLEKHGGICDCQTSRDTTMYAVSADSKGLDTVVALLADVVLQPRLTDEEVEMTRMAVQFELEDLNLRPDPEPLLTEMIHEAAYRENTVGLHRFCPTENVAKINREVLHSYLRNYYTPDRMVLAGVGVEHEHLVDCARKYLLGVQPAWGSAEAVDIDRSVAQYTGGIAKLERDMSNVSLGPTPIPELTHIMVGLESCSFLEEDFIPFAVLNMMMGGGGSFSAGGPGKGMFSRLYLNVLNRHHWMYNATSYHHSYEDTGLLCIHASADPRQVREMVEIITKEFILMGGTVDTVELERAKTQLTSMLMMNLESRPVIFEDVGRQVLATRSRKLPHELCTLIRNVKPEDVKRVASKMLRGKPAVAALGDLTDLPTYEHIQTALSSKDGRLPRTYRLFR
UniProt Q9Y2Y1: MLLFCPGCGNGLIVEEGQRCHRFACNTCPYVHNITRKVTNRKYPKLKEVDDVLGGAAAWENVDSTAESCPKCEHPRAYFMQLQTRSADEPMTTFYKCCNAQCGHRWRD
UniProt P0CAP2, whole entry, looked up: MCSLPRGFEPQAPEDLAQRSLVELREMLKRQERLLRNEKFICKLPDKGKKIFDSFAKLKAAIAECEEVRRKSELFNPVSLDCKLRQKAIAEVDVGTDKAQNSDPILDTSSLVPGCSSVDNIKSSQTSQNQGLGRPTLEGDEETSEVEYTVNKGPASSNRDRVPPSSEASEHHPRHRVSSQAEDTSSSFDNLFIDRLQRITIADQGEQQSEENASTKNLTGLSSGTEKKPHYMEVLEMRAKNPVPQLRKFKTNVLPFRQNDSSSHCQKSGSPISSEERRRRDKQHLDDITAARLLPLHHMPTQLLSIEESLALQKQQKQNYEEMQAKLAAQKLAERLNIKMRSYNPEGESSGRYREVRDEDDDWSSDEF
UniProt Q08752, whole entry, looked up: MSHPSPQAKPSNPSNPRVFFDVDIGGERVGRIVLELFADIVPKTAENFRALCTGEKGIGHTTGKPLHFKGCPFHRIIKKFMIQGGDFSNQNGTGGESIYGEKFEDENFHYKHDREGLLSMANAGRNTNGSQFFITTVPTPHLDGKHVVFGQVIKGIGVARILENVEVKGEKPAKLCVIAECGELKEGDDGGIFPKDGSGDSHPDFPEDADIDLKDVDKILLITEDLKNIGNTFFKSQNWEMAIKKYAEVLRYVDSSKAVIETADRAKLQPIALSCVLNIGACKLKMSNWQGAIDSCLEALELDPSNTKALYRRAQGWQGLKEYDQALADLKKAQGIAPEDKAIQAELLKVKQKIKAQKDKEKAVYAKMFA
UniProt O43314: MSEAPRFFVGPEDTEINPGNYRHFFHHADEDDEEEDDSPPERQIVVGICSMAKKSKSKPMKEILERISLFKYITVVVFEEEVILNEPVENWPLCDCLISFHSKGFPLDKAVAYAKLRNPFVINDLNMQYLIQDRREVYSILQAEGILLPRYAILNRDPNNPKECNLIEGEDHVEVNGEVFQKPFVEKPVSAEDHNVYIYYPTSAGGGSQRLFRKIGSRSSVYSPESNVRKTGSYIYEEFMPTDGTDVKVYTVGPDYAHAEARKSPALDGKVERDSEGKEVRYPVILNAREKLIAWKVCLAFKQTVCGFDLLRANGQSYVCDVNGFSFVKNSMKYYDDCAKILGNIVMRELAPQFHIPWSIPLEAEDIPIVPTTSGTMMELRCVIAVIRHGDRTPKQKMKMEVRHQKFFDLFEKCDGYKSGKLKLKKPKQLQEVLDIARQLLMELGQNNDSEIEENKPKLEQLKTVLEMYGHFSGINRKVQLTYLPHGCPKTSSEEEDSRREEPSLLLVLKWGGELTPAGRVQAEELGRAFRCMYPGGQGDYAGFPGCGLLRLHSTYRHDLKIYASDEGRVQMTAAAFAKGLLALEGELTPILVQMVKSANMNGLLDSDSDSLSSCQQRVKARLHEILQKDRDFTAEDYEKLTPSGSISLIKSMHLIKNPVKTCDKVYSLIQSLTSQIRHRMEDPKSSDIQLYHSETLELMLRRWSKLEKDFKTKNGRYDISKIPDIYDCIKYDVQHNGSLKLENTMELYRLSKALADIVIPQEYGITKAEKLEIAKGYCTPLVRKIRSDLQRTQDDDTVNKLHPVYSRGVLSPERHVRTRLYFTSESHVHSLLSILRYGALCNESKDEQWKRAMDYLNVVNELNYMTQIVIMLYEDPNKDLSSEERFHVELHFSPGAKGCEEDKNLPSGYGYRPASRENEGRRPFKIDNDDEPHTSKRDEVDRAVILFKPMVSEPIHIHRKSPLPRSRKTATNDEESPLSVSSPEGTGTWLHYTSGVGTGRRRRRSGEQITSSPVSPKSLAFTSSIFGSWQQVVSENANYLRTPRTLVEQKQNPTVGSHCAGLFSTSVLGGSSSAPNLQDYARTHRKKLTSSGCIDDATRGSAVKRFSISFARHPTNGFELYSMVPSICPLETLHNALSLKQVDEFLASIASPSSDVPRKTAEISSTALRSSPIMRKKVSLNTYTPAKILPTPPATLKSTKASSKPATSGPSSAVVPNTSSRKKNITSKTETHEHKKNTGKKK
UniProt Q9Y3C6: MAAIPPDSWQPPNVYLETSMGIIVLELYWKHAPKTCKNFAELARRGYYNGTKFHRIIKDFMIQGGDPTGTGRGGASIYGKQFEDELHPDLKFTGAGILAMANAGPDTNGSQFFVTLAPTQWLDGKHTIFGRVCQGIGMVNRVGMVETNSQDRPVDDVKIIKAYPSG
UniProt Q92871: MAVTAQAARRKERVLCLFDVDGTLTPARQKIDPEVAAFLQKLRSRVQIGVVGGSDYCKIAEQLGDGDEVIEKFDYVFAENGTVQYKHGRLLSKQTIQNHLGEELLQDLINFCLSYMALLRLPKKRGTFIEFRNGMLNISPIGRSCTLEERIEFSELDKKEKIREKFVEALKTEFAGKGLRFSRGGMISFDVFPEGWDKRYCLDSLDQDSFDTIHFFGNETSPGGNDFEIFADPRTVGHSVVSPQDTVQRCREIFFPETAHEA
UniProt Q13356: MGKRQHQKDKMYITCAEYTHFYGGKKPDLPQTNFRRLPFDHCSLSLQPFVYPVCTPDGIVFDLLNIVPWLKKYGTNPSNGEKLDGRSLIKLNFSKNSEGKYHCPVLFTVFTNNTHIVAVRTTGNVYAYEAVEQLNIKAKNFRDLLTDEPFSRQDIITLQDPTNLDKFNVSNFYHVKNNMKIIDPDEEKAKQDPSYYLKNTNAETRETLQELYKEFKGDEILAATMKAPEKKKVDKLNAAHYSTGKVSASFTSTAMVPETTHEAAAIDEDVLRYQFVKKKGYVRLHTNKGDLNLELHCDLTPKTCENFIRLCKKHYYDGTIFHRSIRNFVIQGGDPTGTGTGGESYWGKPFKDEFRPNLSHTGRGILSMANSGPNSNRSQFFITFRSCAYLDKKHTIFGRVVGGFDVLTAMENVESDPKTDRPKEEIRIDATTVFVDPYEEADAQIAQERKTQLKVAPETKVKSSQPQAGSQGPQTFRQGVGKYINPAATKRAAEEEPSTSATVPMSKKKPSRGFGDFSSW
UniProt Q9NW08: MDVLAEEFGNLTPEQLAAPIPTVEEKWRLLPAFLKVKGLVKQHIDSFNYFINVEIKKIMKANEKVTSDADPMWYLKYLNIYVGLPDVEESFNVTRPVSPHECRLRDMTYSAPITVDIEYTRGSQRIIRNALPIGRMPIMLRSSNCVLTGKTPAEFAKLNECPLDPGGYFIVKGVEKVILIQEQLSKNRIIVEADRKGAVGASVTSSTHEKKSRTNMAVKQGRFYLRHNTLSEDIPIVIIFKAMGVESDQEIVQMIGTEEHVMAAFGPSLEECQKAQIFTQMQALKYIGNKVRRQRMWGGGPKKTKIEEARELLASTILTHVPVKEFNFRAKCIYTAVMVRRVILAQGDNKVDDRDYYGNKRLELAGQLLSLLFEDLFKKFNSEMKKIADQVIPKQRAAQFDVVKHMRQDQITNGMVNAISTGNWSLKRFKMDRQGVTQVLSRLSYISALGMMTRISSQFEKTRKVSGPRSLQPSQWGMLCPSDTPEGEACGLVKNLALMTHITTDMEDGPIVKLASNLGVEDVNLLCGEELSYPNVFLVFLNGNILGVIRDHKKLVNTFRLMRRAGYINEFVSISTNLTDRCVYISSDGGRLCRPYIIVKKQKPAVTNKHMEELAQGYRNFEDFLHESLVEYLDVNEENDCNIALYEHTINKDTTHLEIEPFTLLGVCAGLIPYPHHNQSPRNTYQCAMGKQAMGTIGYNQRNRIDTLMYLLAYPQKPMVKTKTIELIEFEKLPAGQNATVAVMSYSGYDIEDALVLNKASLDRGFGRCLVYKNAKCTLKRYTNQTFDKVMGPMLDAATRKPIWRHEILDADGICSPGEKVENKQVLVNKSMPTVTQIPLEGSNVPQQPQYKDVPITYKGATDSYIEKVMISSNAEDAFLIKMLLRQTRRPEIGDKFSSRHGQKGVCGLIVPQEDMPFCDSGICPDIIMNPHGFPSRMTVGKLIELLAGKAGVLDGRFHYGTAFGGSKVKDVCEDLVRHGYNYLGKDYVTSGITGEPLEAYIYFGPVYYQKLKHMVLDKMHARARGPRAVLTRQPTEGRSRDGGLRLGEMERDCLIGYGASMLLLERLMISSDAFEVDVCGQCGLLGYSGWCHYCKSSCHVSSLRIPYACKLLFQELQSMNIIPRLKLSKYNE
UniProt Q99541: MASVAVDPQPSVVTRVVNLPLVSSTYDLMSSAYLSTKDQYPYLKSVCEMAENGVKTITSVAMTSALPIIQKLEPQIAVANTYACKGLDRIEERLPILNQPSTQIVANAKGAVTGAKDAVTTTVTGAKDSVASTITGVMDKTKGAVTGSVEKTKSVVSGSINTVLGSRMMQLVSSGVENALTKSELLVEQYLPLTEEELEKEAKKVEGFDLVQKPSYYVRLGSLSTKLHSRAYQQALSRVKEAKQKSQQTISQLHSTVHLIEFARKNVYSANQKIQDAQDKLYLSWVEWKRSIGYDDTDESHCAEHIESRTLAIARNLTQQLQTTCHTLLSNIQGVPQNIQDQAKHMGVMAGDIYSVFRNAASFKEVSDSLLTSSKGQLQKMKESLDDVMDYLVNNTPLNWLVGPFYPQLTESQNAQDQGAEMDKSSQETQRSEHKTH
UniProt Q96HA1, whole entry, looked up: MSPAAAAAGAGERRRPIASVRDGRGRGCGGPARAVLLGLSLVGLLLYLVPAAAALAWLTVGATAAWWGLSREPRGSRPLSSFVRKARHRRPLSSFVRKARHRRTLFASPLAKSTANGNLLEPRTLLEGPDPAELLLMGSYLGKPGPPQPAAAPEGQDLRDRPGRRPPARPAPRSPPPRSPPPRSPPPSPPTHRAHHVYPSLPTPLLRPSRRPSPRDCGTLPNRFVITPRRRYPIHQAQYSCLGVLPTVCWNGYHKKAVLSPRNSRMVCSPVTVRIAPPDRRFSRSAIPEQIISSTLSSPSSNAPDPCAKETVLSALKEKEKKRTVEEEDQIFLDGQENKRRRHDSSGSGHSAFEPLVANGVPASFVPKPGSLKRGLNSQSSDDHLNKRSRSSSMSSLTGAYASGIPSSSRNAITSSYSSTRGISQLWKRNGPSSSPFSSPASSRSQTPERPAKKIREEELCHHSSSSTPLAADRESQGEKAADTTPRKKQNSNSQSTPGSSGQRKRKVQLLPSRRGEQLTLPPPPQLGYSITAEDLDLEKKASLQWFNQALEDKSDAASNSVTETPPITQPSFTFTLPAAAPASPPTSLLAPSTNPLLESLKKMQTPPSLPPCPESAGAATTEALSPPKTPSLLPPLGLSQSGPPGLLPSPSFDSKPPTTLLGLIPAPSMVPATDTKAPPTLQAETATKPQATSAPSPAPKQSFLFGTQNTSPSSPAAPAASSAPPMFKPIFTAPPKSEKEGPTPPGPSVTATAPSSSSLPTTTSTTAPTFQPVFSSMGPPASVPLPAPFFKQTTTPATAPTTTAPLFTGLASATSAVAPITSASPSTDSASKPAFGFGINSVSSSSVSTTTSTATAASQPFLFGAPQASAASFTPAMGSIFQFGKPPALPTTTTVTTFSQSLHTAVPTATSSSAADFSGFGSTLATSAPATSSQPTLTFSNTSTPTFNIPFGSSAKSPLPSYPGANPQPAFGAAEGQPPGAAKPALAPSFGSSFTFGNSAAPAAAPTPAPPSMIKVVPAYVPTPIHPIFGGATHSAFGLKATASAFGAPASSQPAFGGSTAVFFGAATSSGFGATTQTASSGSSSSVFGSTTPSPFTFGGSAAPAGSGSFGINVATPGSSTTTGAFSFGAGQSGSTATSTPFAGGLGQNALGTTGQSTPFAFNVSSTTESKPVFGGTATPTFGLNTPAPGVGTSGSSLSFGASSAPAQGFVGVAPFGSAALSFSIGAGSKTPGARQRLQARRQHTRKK

Experiments:
Test in all cases: log2 fold change, soluble protein after heating vs DMSO (PISA); higher = thermal stabilisation; K562 cells, 10 uM, 30 min; active = over 0.2 and 3.5 SD of the protein, either way, in both replicates (recomputed)
erlotinib = compound: C#Cc1cccc(Nc2ncnc3cc(OCCOC)c(OCCOC)cc23)c1 [erlotinib]
Outline: (§1)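 K562 cells (2×10^6 cells/mL) were treated with 10 μM compound for 30 min, and aliquots were heated for 3 min over 48°C-58°C. Pooled aliquots were extracted in PBS with 0.5% NP-40 at 4°C, and the supernatant after 21,000xg for 90 min was measured by TMTpro 16plex LC-MS/MS with channel sums equalised. Reported thermal stability, relative to control samples and from duplicates, is a log2 fold change.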

[1] = compound: C/C(=N\NC(=O)C1=CC(=CC=C1)S(=O)(=O)N2CCOCC2)/C3=C(C=CC(=C3)Cl)O
Outline: as §1

[2] = compound: C1=CC(=C(C=C1Cl)C2=NC3=NC=CN=C3C(=N2)NC4=CC=NC=C4)F
Outline: as §1

[3] = compound: C1=CC(=CC=C1C2=NC3=C(N2)C=C(C=C3)C(=O)N)OC4=CC=C(C=C4)Cl
Outline: as §1

[4] = compound: C1=CC2=C(C=CC(=C2)/C=C\3/C(=O)NC(=NCC4=CC=CS4)S3)N=C1
Outline: as §1

[5] = compound: C1=CC2=NC=CN=C2C=C1/C=C/3\C(=O)NC(=O)S3
Outline: as §1

[6] = compound: C1=CC=C(C=C1)C2=NC(=C(N2)C3=CC=NC=C3)C4=CC(=C(C=C4)Cl)O
Outline: as §1

[7] = compound: C1=CC=C2C(=C1)C3=NNC4=CC=CC(=C43)C2=O
Outline: as §1

[8] = compound: C1CCN(C1)C(=O)NC2=CC=CC(=C2)NC3=NC=C(C(=N3)NCCC4=CN=CN4)Br
Outline: as §1

[9] = compound: C1CN(CCC1(CC2=CC=C(C=C2)Cl)N)C3=NC=NC4=C3C=CN4
Outline: as §1

IRAK-1-4 Inhibitor I = compound: C1COCCN1CCN2C3=CC=CC=C3N=C2NC(=O)C4=CC(=CC=C4)[N+](=O)[O-] [IRAK-1-4 Inhibitor I]
Outline: as §1

ibrutinib = compound: C=CC(=O)N1CCC[C@@H](n2nc(-c3ccc(Oc4ccccc4)cc3)c3c(N)ncnc32)C1 [ibrutinib]
Outline: as §1

[10] = compound: CC(=O)c1cnc2ccc(-c3cc(Cl)c(O)c(Cl)c3)nc2c1N[C@H]1CC[C@H](CN(C)C)CC1
Outline: as §1

ralimetinib = compound: CC(C)(C)Cn1c(N)nc2ccc(-c3[nH]c(C(C)(C)C)nc3-c3ccc(F)cc3)nc21 [ralimetinib]
Outline: as §1

[11] = compound: CC(C)(O)CC(=O)NCCn1ccc2ncnc(Nc3ccc(Oc4cccc(C(F)(F)F)c4)c(Cl)c3)c21
Outline: as §1

[12] = compound: CC(C)C1=C2N=C(C=C(N2N=C1)NCC3=CC=CC=C3)NCCCCCCN
Outline: as §1

[13] = compound: CC(C)C[C@@H](C=O)NC(=O)[C@H](CC(C)C)NC(=O)[C@H](CC(C)C)NC(=O)OCc1ccccc1
Outline: as §1

pinometostat = compound: CC(C)N(C[C@H]1O[C@@H](n2cnc3c(N)ncnc32)[C@H](O)[C@@H]1O)[C@H]1C[C@@H](CCc2nc3cc(C(C)(C)C)ccc3[nH]2)C1 [pinometostat]
Outline: as §1

[14] = compound: CC1=C(C2=C(C=C1)C(=O)C3=CC=CC=C3N2CCCN)C
Outline: as §1

[15] = compound: CC1=C(C(CC(=O)N1)C2=CC=C(C=C2)C(F)(F)F)C(=O)NC3=C(C=C4C(=C3)C=NN4)F
Outline: as §1

| Target | log2 fold change (erlotinib) | log2 fold change [1] | log2 fold change [2] | log2 fold change [3] | log2 fold change [4] | log2 fold change [5] | log2 fold change [6] | log2 fold change [7] | log2 fold change [8] | log2 fold change [9] | log2 fold change (IRAK-1-4 Inhibitor I) | log2 fold change (ibrutinib) | log2 fold change [10] | log2 fold change (ralimetinib) | log2 fold change [11] | log2 fold change [12] | log2 fold change [13] | log2 fold change (pinometostat) | log2 fold change [14] | log2 fold change [15] |
| --- | --- | --- | --- | --- | --- | --- | --- | --- | --- | --- | --- | --- | --- | --- | --- | --- | --- | --- | --- | --- |
| PMPCA (UniProt Q10713) | inactive: -0.014 | inactive: 0.005 | inactive: 0.064 | inactive: 0.016 | inactive: 0.03 | inactive: -0.014 | inactive: 0.07 | inactive: 0.065 | inactive: -0.026 | inactive: 0.011 | inactive: 0.016 | inactive: -0.008 | inactive: -0.029 | inactive: 0.057 | inactive: -0.155 | inactive: 0.097 | inactive: -0.003 | inactive: -0.015 | inactive: 0.055 | – |
| POLR3K (UniProt Q9Y2Y1) | inactive: -0.082 | inactive: 0.005 | inactive: -0.005 | inactive: 0.007 | inactive: -0.057 | inactive: -0.038 | active: -0.235 | inactive: -0.056 | inactive: -0.006 | inactive: 0.031 | inactive: 0.026 | inactive: 0.044 | inactive: -0.013 | inactive: -0.084 | inactive: -0.07 | inactive: 0.124 | inactive: 0.089 | inactive: 0.043 | inactive: -0.039 | – |
| POLR2C (UniProt P19387) | inactive: 0.05 | inactive: 0.037 | inactive: -0.006 | inactive: -0.051 | inactive: -0.038 | inactive: -0.053 | inactive: 0.172 | inactive: 0.001 | inactive: 0.117 | inactive: 0 | inactive: -0.041 | inactive: -0.025 | inactive: 0.227 | inactive: 0.102 | inactive: 0.003 | inactive: 0.058 | inactive: 0.042 | inactive: 0.065 | inactive: -0.025 | – |
| POLR2M (UniProt P0CAP2) | inactive: -0.042 | inactive: -0.033 | inactive: -0.054 | inactive: 0.004 | inactive: 0.05 | inactive: 0.055 | inactive: 0.041 | inactive: -0.009 | inactive: 0.017 | inactive: -0.024 | inactive: -0.022 | inactive: -0.017 | inactive: 0.067 | inactive: 0.016 | inactive: 0.001 | inactive: 0.059 | inactive: 0.058 | inactive: -0.02 | inactive: 0 | – |
| POLR2B (UniProt P30876) | inactive: -0.008 | inactive: -0.014 | inactive: -0.025 | inactive: 0.024 | inactive: -0.006 | inactive: 0.047 | inactive: 0.045 | inactive: 0.009 | inactive: 0.068 | inactive: -0.063 | inactive: -0.095 | inactive: -0.002 | active: 0.262 | inactive: 0.066 | inactive: -0.047 | inactive: 0.08 | inactive: 0.03 | inactive: 0.037 | inactive: 0.03 | – |
| PPID (UniProt Q08752) | inactive: 0.114 | inactive: 0.111 | inactive: -0.01 | inactive: -0.021 | inactive: 0.075 | inactive: 0.007 | inactive: 0.095 | inactive: 0.021 | inactive: -0.076 | inactive: -0.118 | inactive: -0.141 | inactive: -0.057 | inactive: -0.013 | inactive: 0.103 | inactive: -0.152 | inactive: -0.238 | inactive: 0.053 | inactive: 0.105 | inactive: 0.022 | – |
| POLR2A (UniProt P24928) | inactive: -0.018 | inactive: -0.019 | inactive: -0.008 | inactive: 0.024 | inactive: 0.013 | inactive: 0.039 | inactive: 0.019 | inactive: 0.026 | inactive: 0.111 | inactive: -0.042 | inactive: -0.029 | inactive: 0.054 | active: 0.342 | inactive: 0.011 | inactive: -0.065 | inactive: 0.19 | inactive: 0.005 | inactive: -0.004 | inactive: 0.033 | – |
| PPIP5K2 (UniProt O43314) | inactive: 0.007 | inactive: 0.047 | inactive: 0.053 | inactive: 0.021 | inactive: 0.035 | inactive: -0.001 | inactive: -0.014 | inactive: 0.007 | inactive: -0.001 | inactive: 0 | inactive: 0.01 | inactive: 0.006 | inactive: -0.049 | inactive: -0.015 | inactive: -0.029 | inactive: 0.024 | inactive: 0.007 | inactive: -0.042 | inactive: 0.027 | inactive: -0.013 |
| PPIL1 (UniProt Q9Y3C6) | inactive: 0.019 | inactive: -0.009 | inactive: -0.027 | inactive: -0.012 | inactive: 0.024 | inactive: 0.061 | inactive: -0.013 | inactive: -0.025 | inactive: -0.007 | inactive: -0.027 | inactive: -0.046 | inactive: -0.011 | active: 0.225 | inactive: -0.02 | inactive: -0.038 | inactive: 0.08 | inactive: 0.09 | inactive: 0.082 | inactive: 0.172 | – |
| POLD3 (UniProt Q15054) | inactive: 0.083 | inactive: 0.131 | inactive: 0.048 | inactive: -0.031 | inactive: 0.048 | inactive: 0.038 | inactive: 0.027 | inactive: -0.07 | inactive: -0.016 | inactive: -0.099 | inactive: -0.013 | inactive: -0.01 | inactive: -0.043 | inactive: -0.001 | inactive: -0.114 | active: -0.357 | inactive: -0.117 | inactive: -0.016 | inactive: 0.013 | – |
| PMM1 (UniProt Q92871) | inactive: -0.021 | inactive: -0.041 | inactive: 0.004 | inactive: 0.065 | inactive: 0.1 | inactive: 0.002 | inactive: -0.007 | inactive: -0.049 | inactive: 0.001 | inactive: 0.036 | inactive: -0.06 | inactive: 0.039 | inactive: -0.011 | inactive: -0.024 | inactive: 0.014 | inactive: 0.187 | inactive: 0.019 | inactive: -0.037 | inactive: 0.049 | – |
| PPIL2 (UniProt Q13356) | inactive: 0.061 | inactive: 0.072 | inactive: 0.064 | inactive: -0.033 | inactive: 0.047 | inactive: 0.004 | inactive: 0.026 | inactive: 0.067 | inactive: -0.052 | inactive: -0.079 | inactive: -0.097 | inactive: -0.048 | inactive: -0.077 | inactive: 0 | inactive: -0.081 | inactive: -0.044 | inactive: 0.096 | inactive: -0.063 | inactive: 0.062 | – |
| POLR3D (UniProt P05423) | inactive: 0.068 | active: -0.665 | inactive: -0.087 | inactive: -0.031 | active: -0.733 | inactive: -0.022 | inactive: 0.076 | inactive: -0.004 | inactive: -0.005 | inactive: 0.372 | inactive: -0.017 | inactive: 0.766 | inactive: 0.022 | inactive: 0.043 | inactive: -0.1 | inactive: -0.158 | inactive: -0.002 | inactive: 0.109 | inactive: 0.009 | – |
| POLR2E (UniProt P19388) | inactive: 0.022 | inactive: 0.021 | inactive: 0.038 | inactive: 0.057 | inactive: -0.054 | inactive: 0.007 | inactive: 0.013 | inactive: -0.02 | inactive: -0.01 | inactive: 0.011 | inactive: -0.106 | inactive: -0.012 | inactive: 0.218 | inactive: -0.041 | inactive: -0.061 | inactive: 0.081 | inactive: 0.065 | inactive: 0.108 | inactive: -0.014 | – |
| POLR3B (UniProt Q9NW08) | inactive: -0.022 | inactive: -0.027 | inactive: -0.003 | inactive: -0.09 | inactive: 0.004 | inactive: 0.022 | inactive: 0.025 | inactive: -0.018 | inactive: 0.194 | inactive: -0.088 | inactive: -0.121 | inactive: -0.048 | inactive: 0.044 | inactive: 0.052 | inactive: -0.116 | inactive: -0.183 | inactive: 0.055 | inactive: 0.115 | active: 0.297 | – |
| PLIN2 (UniProt Q99541) | inactive: 0.033 | inactive: 0.028 | inactive: 0.043 | inactive: -0.038 | inactive: 0.023 | inactive: 0.101 | inactive: 0 | inactive: -0.089 | inactive: 0.028 | inactive: -0.068 | inactive: 0.058 | inactive: 0.055 | inactive: 0.005 | inactive: -0.065 | inactive: -0.083 | active: -1.11 | inactive: -0.014 | inactive: 0.007 | inactive: -0.022 | – |
| POM121 (UniProt Q96HA1) | inactive: -0.013 | inactive: -0.075 | inactive: -0.127 | inactive: 0.033 | inactive: 0.118 | inactive: -0.008 | inactive: -0.137 | inactive: -0.185 | inactive: -0.087 | inactive: -0.106 | inactive: -0.022 | inactive: 0.005 | inactive: -0.164 | inactive: 0.083 | inactive: 0.016 | inactive: -0.241 | inactive: 0.178 | inactive: 0.065 | inactive: -0.057 | – |

A second format for some results above:
Target,log2 fold change (erlotinib),log2 fold change [1],log2 fold change [2],log2 fold change [3],log2 fold change [4],log2 fold change [5],log2 fold change [6],log2 fold change [7],log2 fold change [8],log2 fold change [9],log2 fold change (IRAK-1-4 Inhibitor I),log2 fold change (ibrutinib),log2 fold change [10],log2 fold change (ralimetinib),log2 fold change [11],log2 fold change [12],log2 fold change [13],log2 fold change (pinometostat),log2 fold change [14],log2 fold change [15]
PMPCA (UniProt Q10713),inactive: -0.014,inactive: 0.005,inactive: 0.064,inactive: 0.016,inactive: 0.03,inactive: -0.014,inactive: 0.07,inactive: 0.065,inactive: -0.026,inactive: 0.011,inactive: 0.016,inactive: -0.008,inactive: -0.029,inactive: 0.057,inactive: -0.155,inactive: 0.097,inactive: -0.003,inactive: -0.015,inactive: 0.055,–
POLR2C (UniProt P19387),inactive: 0.05,inactive: 0.037,inactive: -0.006,inactive: -0.051,inactive: -0.038,inactive: -0.053,inactive: 0.172,inactive: 0.001,inactive: 0.117,inactive: 0,inactive: -0.041,inactive: -0.025,inactive: 0.227,inactive: 0.102,inactive: 0.003,inactive: 0.058,inactive: 0.042,inactive: 0.065,inactive: -0.025,–
POLR2B (UniProt P30876),inactive: -0.008,inactive: -0.014,inactive: -0.025,inactive: 0.024,inactive: -0.006,inactive: 0.047,inactive: 0.045,inactive: 0.009,inactive: 0.068,inactive: -0.063,inactive: -0.095,inactive: -0.002,active: 0.262,inactive: 0.066,inactive: -0.047,inactive: 0.08,inactive: 0.03,inactive: 0.037,inactive: 0.03,–
POLR2A (UniProt P24928),inactive: -0.018,inactive: -0.019,inactive: -0.008,inactive: 0.024,inactive: 0.013,inactive: 0.039,inactive: 0.019,inactive: 0.026,inactive: 0.111,inactive: -0.042,inactive: -0.029,inactive: 0.054,active: 0.342,inactive: 0.011,inactive: -0.065,inactive: 0.19,inactive: 0.005,inactive: -0.004,inactive: 0.033,–
PPIP5K2 (UniProt O43314),inactive: 0.007,inactive: 0.047,inactive: 0.053,inactive: 0.021,inactive: 0.035,inactive: -0.001,inactive: -0.014,inactive: 0.007,inactive: -0.001,inactive: 0,inactive: 0.01,inactive: 0.006,inactive: -0.049,inactive: -0.015,inactive: -0.029,inactive: 0.024,inactive: 0.007,inactive: -0.042,inactive: 0.027,inactive: -0.013
